From US7495098B2, “Extraction of alkaloids from opium” (Mallinckrodt Inc, priority 2004, dated 2009)

Tests used:
[1] = pH greater than 6 in the presence of oxygen
[2] = Stability of alkaloids in the acid digest of opium suspension at pH 3.0, room temperature; conditions: pH 3.0, up to 96 hours

In the case of `CN1CC[C@]23c4c5ccc(O)c4O[C@H]2[C@@H](O)C=C[C@H]3[C@H]1C5` [Morphine, morphine], the Stability of morphine [1] is reported as “very unstable” and the “Stability (loss of alkaloid) in solution” value [2] is reported as “does not appear to be any significant loss”.
